Results are given in words; binding and its absence hold for the method and conditions named. Binding calls can cover weak binding; strength is not graded here.
Key:
[1] = target: platelet GPIb, guinea pig (guinea pig platelets) (guinea pig); assay: FACS on guinea pig platelets, relative binding
[2] = target: platelet GPIb, rabbit (rabbit platelets) (rabbit); assay: FACS on rabbit platelets, relative binding
[3] = target: platelet GPIb, rabbit (rabbit platelets) (rabbit); assay: FACS on rabbit platelets
[4] = target: platelet GPIb, guinea pig (guinea pig platelets) (guinea pig); assay: FACS on guinea pig platelets

binding [1]: binds | binding [2]: binds | binding [3]: binds | binding [4]: binds
B1: S11 scFv (scFv)
scFv: EVQLVESGGGVVRPGGSLRLSCAASGFTFDLNPKVKHMWVRQAPGKGLEWVSGINWNGGSTGYADSVKGRFTISRDNAKNSLYLQMNSLRAEDTAVYYCARLRYPFFWGQGTLVTVSRGGGGSGGGGSGGGGSSELTQDPAVSVALGQTVRITCQGDSLRSYYASWYQQKPGQAPVLVIYGKNNRPSGIPDRFSGSSSGNTASLTITGAQAEDEADYYCNSRDSSGNHVVFGGGTKLTVLGAAAEQKLISEEDLNGAA
